Some of the results follow.
Assay: TOR pathway CIT2 reporter hit retest – S. cerevisiae, GFP fusion, cherry picks, mother/daughter gates, confirmation (AID 2274)
Conditions: S. cerevisiae CIT2-GFP strain, flow cytometry, 3 h, at 10 µM, stronger effect = higher value
[1] = measured here: daughter cell gate
[2] = measured here: mother cell gate

SMILES | GFP response, % of DMSO [1] [%] | GFP response, % of DMSO [2] [%]
O=P(Nc1nccs1)(c1ccccc1)c1nc2ccccc2s1 (stereo unspecified) | 98.3 | 96.8
CCOP(=O)(Nc1cccc2ccccc12)OCC | 105 | 102
C[N+]1=C2C=CC=CC=C2SC12C([N+](=O)[O-])=CC([N+](=O)[O-])=C[C-]2[N+](=O)[O-] (stereo unspecified) | 101 | 96.8

From PubChem BioAssay AID2274 (NMMLSC, 2010)
